{
  "source": "patent US8067454B2",
  "about": "“Thio-substituted Anthra [1, 2-d] imidazole- 6, 11-dione derivatives, preparation method and application thereof” (National Defense Medical Center, priority 2010, dated 2011)",
  "note": "The amount applied is not stated for every result.",
  "data": [
    {"tested_on": "60 kinds of different human cancer cells", "assay": "NCI 60-cell drug screen, whole panel (One Dose Mean Graph)", "type": "cell-based", "conditions": "1.00E−5 Molar", "units": {"Growth Percent, Delta": "%", "Growth Percent, Range": "%"}, "values": [
      {"smiles": "O=C1c2ccccc2C(=O)c2c1ccc1nc(S)[nH]c21", "note": "[f1-0, 2-Mercapto-1(3)H-anthra[1,2-d]imidazole-6,11-dione]", "Growth Percent, Delta": 49.19, "Growth Percent, Range": 91.13},
      {"smiles": "CCSc1nc2ccc3c(c2[nH]1)C(=O)c1ccccc1C3=O", "note": "[f1-1, 2-(Ethylthio)-1H-anthra[1,2-d]imidazole-6,11-dione]", "Growth Percent, Delta": 75.97, "Growth Percent, Range": 137.32},
      {"smiles": "CCCSc1nc2ccc3c(c2[nH]1)C(=O)c1ccccc1C3=O", "note": "[f1-2, 2-(propylthio)-1H-anthra[1,2-d]imidazole-6,11-dione]", "Growth Percent, Delta": 69.57, "Growth Percent, Range": 113.73},
      {"smiles": "O=C1c2ccccc2C(=O)c2c1ccc1nc(SCCN3CCCC3)[nH]c21", "note": "[f1-11]", "Growth Percent, Delta": 112.25, "Growth Percent, Range": 172.48},
      {"smiles": "CN(C)CCCSc1nc2ccc3c(c2[nH]1)C(=O)c1ccccc1C3=O", "note": "[f1-15, 2-(3-(dimethylamino)propylthio)-1H-anthra[1,2-d]imidazole-6,11-dione]", "Growth Percent, Delta": 79.00, "Growth Percent, Range": 146.09},
      {"smiles": "O=C1c2ccccc2C(=O)c2c1ccc1nc3n(c21)CCS3", "note": "[f3-1, 2-(2-N-ethylthio)-1H-anthra[1,2-d]imidazole-6,11-dione]", "Growth Percent, Delta": 40.19, "Growth Percent, Range": 73.56}
    ]}
  ]
}
